Reference: US20260266848A1, “COMPOSITIONS AND METHODS FOR DIAGNOSING AND TREATING DYSTONIA” (Duke University, priority 2023, published 2026)

Test system: DYT1 patient plasma derived EVs
Test: Plasma-derived EV proteomics (ExoQuick ULTRA, DIA LC/MS/MS), DYT1 vs Healthy Controls
Parameters: species or system human
Settings: for Mean DYT1 / Mean HC: protein abundance; for Mean DYT1: DYT1 patients; for Mean HC: healthy controls (HC); for Log2_FC / Directionality: Hs. Plasma EVs (DYT1/WT); for Log2_FC: protein level, human patient derived EVs by genotype; for Hs. Plasma EVs (DYT1/WT): directionality of protein change, human plasma derived EVs, DYT1 vs WT(HC)
Description: Data was obtained for extracellular vesicles using previously acquired samples. The ExoQuick® ULTRA EV Isolation System was used to fractionate and enrich EVs from plasma. Isolated plasma EV samples were then submitted to proteomic analysis by the Duke Proteomics and Metabolomics Core Facility (DPMCF). At the DPMCF, quantitative (LC/MS/MS) was performed on 500 ng of each sample, using an EvoSep One UPLC system coupled to a Thermo Orbitrap Astral high-resolution accurate mass tandem mass spectrometer (Thermo). Briefly, the sample was eluted directly from an Evotip which was subjected to a low organic wash and then subjected to an analytical separation using a 1.7 μm EvoSep 150 um ID×15 cm endurance (EveoSep) column running an SPD30 gradient from approximately 5 to 30% acetonitrile with 0.1% formic acid with a column temperature of 50 C. Data collection on the Orbitrap Astral mass spectrometer was performed in a data-independent acquisition (DIA) mode of acquisition with a r=240,000 (@m/z 200) full MS scan from m/z 380-980 with a target AGC value of 4e5 ions. Fixed DIA, windows of 4 m/z from m/z 380 to 980 DIA MS/MS scans were acquired in the Astral with a target AGC value of 5e4 and a max fill time of 6 ms. HCD collision energy setting of 27% was used for all MS2 scans.

Row | Molecule | Mean DYT1 | Mean HC | Log2_FC | Directionality | Hs. Plasma EVs (DYT1/WT) | Log2FC (DYT1 patients as compared to healthy controls)
1 | TUBA1C (protein, UniProt Q9BQE3 1-449, looked up) Tubulin alpha-1C chain: MRECISIHVGQAGVQIGNACWELYCLEHGIQPDGQMPSDKTIGGGDDSFNTFFSETGAGKHVPRAVFVDLEPTVIDEVRTGTYRQLFHPEQLITGKEDAANNYARGHYTIGKEIIDLVLDRIRKLADQCTGLQGFLVFHSFGGGTGSGFTSLLMERLSVDYGKKSKLEFSIYPAPQVSTAVVEPYNSILTTHTTLEHSDCAFMVDNEAIYDICRRNLDIERPTYTNLNRLISQIVSSITASLRFDGALNVDLTEFQTNLVPYPRIHFPLATYAPVISAEKAYHEQLTVAEITNACFEPANQMVKCDPRHGKYMACCLLYRGDVVPKDVNAAIATIKTKRTIQFVDWCPTGFKVGINYQPPTVVPGGDLAKVQRAVCMLSNTTAVAEAWARLDHKFDLMYAKRAFVHWYVGEGMEEGEFSEAREDMAALEKDYEEVGADSADGEDEGEEY | 6.242 | 7.71 | – | – | – | –
2 | MRC2 (protein, UniProt Q9UBG0 31-1479, looked up) C-type mannose receptor 2: GAPGDAALPEPNVFLIFSHGLQGCLEAQGGQVRVTPACNTSLPAQRWKWVSRNRLFNLGTMQCLGTGWPGTNTTASLGMYECDREALNLRWHCRTLGDQLSLLLGARTSNISKPGTLERGDQTRSGQWRIYGSEEDLCALPYHEVYTIQGNSHGKPCTIPFKYDNQWFHGCTSTGREDGHLWCATTQDYGKDERWGFCPIKSNDCETFWDKDQLTDSCYQFNFQSTLSWREAWASCEQQGADLLSITEIHEQTYINGLLTGYSSTLWIGLNDLDTSGGWQWSDNSPLKYLNWESDQPDNPSEENCGVIRTESSGGWQNRDCSIALPYVCKKKPNATAEPTPPDRWANVKVECEPSWQPFQGHCYRLQAEKRSWQESKKACLRGGGDLVSIHSMAELEFITKQIKQEVEELWIGLNDLKLQMNFEWSDGSLVSFTHWHPFEPNNFRDSLEDCVTIWGPEGRWNDSPCNQSLPSICKKAGQLSQGAAEEDHGCRKGWTWHSPSCYWLGEDQVTYSEARRLCTDHGSQLVTITNRFEQAFVSSLIYNWEGEYFWTALQDLNSTGSFFWLSGDEVMYTHWNRDQPGYSRGGCVALATGSAMGLWEVKNCTSFRARYICRQSLGTPVTPELPGPDPTPSLTGSCPQGWASDTKLRYCYKVFSSERLQDKKSWVQAQGACQELGAQLLSLASYEEEHFVANMLNKIFGESEPEIHEQHWFWIGLNRRDPRGGQSWRWSDGVGFSYHNFDRSRHDDDDIRGCAVLDLASLQWVAMQCDTQLDWICKIPRGTDVREPDDSPQGRREWLRFQEAEYKFFEHHSTWAQAQRICTWFQAELTSVHSQAELDFLSHNLQKFSRAQEQHWWIGLHTSESDGRFRWTDGSIINFISWAPGKPRPVGKDKKCVYMTASREDWGDQRCLTALPYICKRSNVTKETQPPDLPTTALGGCPSDWIQFLNKCFQVQGQEPQSRVKWSEAQFSCEQQEAQLVTITNPLEQAFITASLPNVTFDLWIGLHASQRDFQWVEQEPLMYANWAPGEPSGPSPAPSGNKPTSCAVVLHSPSAHFTGRWDDRSCTEETHGFICQKGTDPSLSPSPAALPPAPGTELSYLNGTFRLLQKPLRWHDALLLCESRNASLAYVPDPYTQAFLTQAARGLRTPLWIGLAGEEGSRRYSWVSEEPLNYVGWQDGEPQQPGGCTYVDVDGAWRTTSCDTKLQGAVCGVSSGPPPPRRISYHGSCPQGLADSAWIPFREHCYSFHMELLLGHKEARQRCQRAGGAVLSILDEMENVFVWEHLQSYEGQSRGAWLGMNFNPKGGTLVWQDNTAVNYSNWGPPGLGPSMLSHNSCYWIQSNSGLWRPGACTNITMGVVCKLPRAEQSSFSPSALPENPAALVVVLMAVLLLLALLTAALILYRRRQSIERGAFEGARYSRSSSSPTEATEKNILVSDMEMNEQQE | 5.949 | 4.87 | 1.078 | – | – | –
3 | PSMD12 (protein, UniProt O00232 2-456, looked up) 26S proteasome non-ATPase …: ADGGSERADGRIVKMEVDYSATVDQRLPECAKLAKEGRLQEVIETLLSLEKQTRTASDMVSTSRILVAVVKMCYEAKEWDLLNENIMLLSKRRSQLKQAVAKMVQQCCTYVEEITDLPIKLRLIDTLRMVTEGKIYVEIERARLTKTLATIKEQNGDVKEAASILQELQVETYGSMEKKERVEFILEQMRLCLAVKDYIRTQIISKKINTKFFQEENTEKLKLKYYNLMIQLDQHEGSYLSICKHYRAIYDTPCIQAESEKWQQALKSVVLYVILAPFDNEQSDLVHRISGDKKLEEIPKYKDLLKLFTTMELMRWSTLVEDYGMELRKGSLESPATDVFGSTEEGEKRWKDLKNRVVEHNIRIMAKYYTRITMKRMAQLLDLSVDESEAFLSNLVVNKTIFAKVDRLAGIINFQRPKDPNNLLNDWSQKLNSLMSLVNKTTHLIAKEEMIHNLQ | 4.269 | 5.33 | -1.06 | DOWN | DOWN | –
4 | ACAA1 (protein, UniProt P09110 27-424, looked up) 3-ketoacyl-CoA thiolase, …: LSGAPQASAADVVVVHGRRTAICRAGRGGFKDTTPDELLSAVMTAVLKDVNLRPEQLGDICVGNVLQPGAGAIMARIAQFLSDIPETVPLSTVNRQCSSGLQAVASIAGGIRNGSYDIGMACGVESMSLADRGNPGNITSRLMEKEKARDCLIPMGITSENVAERFGISREKQDTFALASQQKAARAQSKGCFQAEIVPVTTTVHDDKGTKRSITVTQDEGIRPSTTMEGLAKLKPAFKKDGSTTAGNSSQVSDGAAAILLARRSKAEELGLPILGVLRSYAVVGVPPDIMGIGPAYAIPVALQKAGLTVSDVDIFEINEAFASQAAYCVEKLRLPPEKVNPLGGAVALGHPLGCTGARQVITLLNELKRRGKRAYGVVSMCIGTGMGAAAVFEYPGN | 3.044 | 3.91 | -0.8622 | DOWN | DOWN | –
5 | PAFAH1B2 (protein, UniProt P68402 2-229, looked up) Platelet-activating factor …: SQGDSNPAAIPHAAEDIQGDDRWMSQHNRFVLDCKDKEPDVLFVGDSMVQLMQQYEIWRELFSPLHALNFGIGGDTTRHVLWRLKNGELENIKPKVIVVWVGTNNHENTAEEVAGGIEAIVQLINTRQPQAKIIVLGLLPRGEKPNPLRQKNAKVNQLLKVSLPKLANVQLLDTDGGFVHSDGAISCHDMFDFLHLTGGGYAKICKPLHELIMQLLEETPEEKQTTIA | 4.198 | 3.22 | – | – | – | –
6 | GALNTL6 (protein, UniProt Q49A17 1-601, looked up) Polypeptide …: MKRKQKRFLQMTLLFTVALIFLPNVGLWSLYKDKHLVKSAEPGEQQTFPLGLGDGQFYSWTDGLRRKDWHDYESIQKEAMRSGKGEHGKPYPLTEEDHDDSAYRENGFNIFVSNNIALERSLPDIRHANCKHKMYLERLPNTSIIIPFHNEGWTSLLRTIHSIINRTPGSLIAEIILVDDFSEREHLKDKLEEYMARFSKVRIVRTKKREGLIRTRLLGASMARGEVLTFLDSHCEVNVNWLPPLLNQIALNHKTIVCPMIDVIDHNHFGYEAQAGDAMRGAFDWEMYYKRIPIPPELQRADPSDPFESPVMAGGLFAVDRKWFWELGGYDPGLEIWGGEQYEISFKVWMCGGEMFDVPCSRVGHIYRKYVPYKVPSGTSLARNLKRVAETWMDEFAEYIYQRRPEYRHLSTGDISAQKELRKQLKCKDFKWFMAAVAWDVPKYYPPVEPPPAAWGEIRNVAANLCVDSKHGATGTELRLDICVKDGSERTWSHEQLFTFGWREDIRPGEPLHTRKFCFDAISHNSPVTLYDCHGMKGNQLWGYRKDRTLFHPVSNSCMDCNPAEKKIFMARCDPLSETQQWIFEHINMTVLEKFNHHANS | 5.463 | 7.57 | – | – | – | −2.1098
7 | ATP5F1C (protein, UniProt P36542 26-298, looked up) ATP synthase F(1) complex …: ATLKDITRRLKSIKNIQKITKSMKMVAAAKYARAERELKPARIYGLGSLALYEKADIKGPEDKKKHLLIGVSSDRGLCGAIHSSIAKQMKSEVATLTAAGKEVMLVGIGDKIRGILYRTHSDQFLVAFKEVGRKPPTFGDASVIALELLNSGYEFDEGSIIFNKFRSVISYKTEEKPIFSLNTVASADSMSIYDDIDADVLQNYQEYNLANIIYYSLKESTTSEQSARMTAMDNASKNASEMIDKLTLTFNRTRQAVITKELIEIISGAAALD | 7.830 | 8.69 | – | – | – | –
8 | SLC25A6 (protein, UniProt P12236 1-298, looked up) ADP/ATP translocase 3: MTEQAISFAKDFLAGGIAAAISKTAVAPIERVKLLLQVQHASKQIAADKQYKGIVDCIVRIPKEQGVLSFWRGNLANVIRYFPTQALNFAFKDKYKQIFLGGVDKHTQFWRYFAGNLASGGAAGATSLCFVYPLDFARTRLAADVGKSGTEREFRGLGDCLVKITKSDGIRGLYQGFSVSVQGIIIYRAAYFGVYDTAKGMLPDPKNTHIVVSWMIAQTVTAVAGVVSYPFDTVRRRMMMQSGRKGADIMYTGTVDCWRKIFRDEGGKAFFKGAWSNVLRGMGGAFVLVLYDELKKVI | 4.947 | 4.05 | – | – | – | –
9 | PTGDR2 (protein, UniProt Q9Y5Y4 1-395, looked up) Prostaglandin D2 receptor 2: MSANATLKPLCPILEQMSRLQSHSNTSIRYIDHAAVLLHGLASLLGLVENGVILFVVGCRMRQTVVTTWVLHLALSDLLASASLPFFTYFLAVGHSWELGTTFCKLHSSIFFLNMFASGFLLSAISLDRCLQVVRPVWAQNHRTVAAAHKVCLVLWALAVLNTVPYFVFRDTISRLDGRIMCYYNVLLLNPGPDRDATCNSRQVALAVSKFLLAFLVPLAIIASSHAAVSLRLQHRGRRRPGRFVRLVAAVVAAFALCWGPYHVFSLLEARAHANPGLRPLVWRGLPFVTSLAFFNSVANPVLYVLTCPDMLRKLRRSLRTVLESVLVDDSELGGAGSSRRRRTSSTARSASPLALCSRPEEPRGPARLLGWLLGSCAASPQTGPLNRALSSTSS | 12.868 | 14.27 | – | – | – | –
10 | FAM177A1 (protein, UniProt Q8N128 1-213, looked up) Protein FAM177A1: MDQEPVGGVERGEAVAASGAAAAAAFGESAGQMSNERGFENVELGVIGKKKKVPRRVIHFVSGETMEEYSTDEDEVDGLEKKDVLPTVDPTKLTWGPYLWFYMLRAATSTLSVCDFLGEKIASVLGISTPKYQYAIDEYYRMKKEEEEEEEENRMSEEAEKQYQQNKLQTDSIVQTDQPETVISSSFVNVNFEMEGDSEVIMESKQNPVSVPP | 5.304 | 4.10 | – | – | – | –
